Test results reported in PubChem BioAssay AID651768 (National Center for Advancing Translational Sciences (NCATS), 2012).
The whole screen tested about 360,000 compounds, of which about 1,700 (0.47%) were called active. This list was built around the results that the source calls inconclusive (neither active nor inactive); the mix of calls is not that of the screen. Calls follow the shape of the dose curve; as a rule, active = well fitted inhibition curve with a large enough effect; inconclusive = small, poorly fitted or top-dose-only effect; inactive = no such curve, though single readings can be large or run the other way. Potencies of inconclusive entries are doubtful fits and often do not repeat.

By UniProt entry, the sequences of proteins in these tests, tags left out.
UniProt Q14191, whole entry, looked up: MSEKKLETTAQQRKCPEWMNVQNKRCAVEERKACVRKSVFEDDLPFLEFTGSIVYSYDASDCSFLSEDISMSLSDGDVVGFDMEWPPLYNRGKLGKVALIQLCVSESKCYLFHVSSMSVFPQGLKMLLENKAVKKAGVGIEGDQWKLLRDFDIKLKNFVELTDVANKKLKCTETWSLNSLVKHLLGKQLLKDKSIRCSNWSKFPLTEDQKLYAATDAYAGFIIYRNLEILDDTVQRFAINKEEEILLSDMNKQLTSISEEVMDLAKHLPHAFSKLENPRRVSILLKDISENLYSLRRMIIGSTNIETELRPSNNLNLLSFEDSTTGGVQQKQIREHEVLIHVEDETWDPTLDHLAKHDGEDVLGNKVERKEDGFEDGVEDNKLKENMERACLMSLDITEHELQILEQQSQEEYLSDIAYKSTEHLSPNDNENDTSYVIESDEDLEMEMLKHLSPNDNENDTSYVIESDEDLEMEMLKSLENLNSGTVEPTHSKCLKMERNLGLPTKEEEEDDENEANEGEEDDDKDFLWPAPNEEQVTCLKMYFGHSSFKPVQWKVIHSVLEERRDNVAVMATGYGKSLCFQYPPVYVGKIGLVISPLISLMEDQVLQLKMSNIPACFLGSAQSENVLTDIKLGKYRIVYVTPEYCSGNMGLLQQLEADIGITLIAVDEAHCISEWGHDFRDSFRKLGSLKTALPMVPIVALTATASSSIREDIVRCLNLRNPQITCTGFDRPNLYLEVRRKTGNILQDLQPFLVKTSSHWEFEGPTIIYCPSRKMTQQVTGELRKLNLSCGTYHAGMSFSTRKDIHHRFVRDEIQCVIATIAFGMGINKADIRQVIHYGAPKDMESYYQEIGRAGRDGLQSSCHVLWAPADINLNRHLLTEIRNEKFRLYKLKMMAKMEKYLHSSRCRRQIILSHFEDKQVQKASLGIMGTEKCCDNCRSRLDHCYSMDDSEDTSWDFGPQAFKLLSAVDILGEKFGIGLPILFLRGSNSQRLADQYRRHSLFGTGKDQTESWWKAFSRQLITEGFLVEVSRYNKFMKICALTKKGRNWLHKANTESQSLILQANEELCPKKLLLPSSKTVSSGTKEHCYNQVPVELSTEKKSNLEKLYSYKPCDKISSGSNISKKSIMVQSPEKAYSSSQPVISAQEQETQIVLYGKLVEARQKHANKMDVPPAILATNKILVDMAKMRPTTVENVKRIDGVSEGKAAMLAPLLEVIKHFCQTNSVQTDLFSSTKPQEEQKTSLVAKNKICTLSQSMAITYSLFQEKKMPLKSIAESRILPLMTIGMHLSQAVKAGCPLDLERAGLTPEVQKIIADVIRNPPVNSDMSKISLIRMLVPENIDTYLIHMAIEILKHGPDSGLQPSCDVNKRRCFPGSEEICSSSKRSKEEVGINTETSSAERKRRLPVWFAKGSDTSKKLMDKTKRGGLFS

Molecular target: Bifunctional 3'-5' exonuclease/ATP-dependent helicase WRN (Homo sapiens) (UniProt Q14191)
Test: qHTS for Inhibitors of WRN Helicase; also: nearly all actives have a fitted effect of over 55% in size
Conditions: WRN helicase unwinding, fluorescent forked duplex, kinetic; activity change, negative = inhibition: at 114 µM (top of the series) unless noted
Method in brief: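 Kinetic red-fluorescence monitoring (525/598 nm) tracks WRN helicase activity after 100 nM fluorophore-quencher forked duplex and 2 mM ATP are added to 20 nM enzyme pretreated 15 min at room temperature with compound.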
% is scaled to controls: 0 for no effect and ±100 for the full control effect; potency is read from the fitted curve at half-maximal effect.

Row | SMILES | Potency | activity change, negative = inhibition
1 | CNS(=O)(=O)c1ccc2c3c(cccc13)C(=O)N2 | inconclusive: 10 µM [inhibitor, full curve] | 
2 | Cc1ccc(-c2nn(-c3ccccc3)cc2C2CC(c3cccs3)=NN2C(=O)CCCC(=O)O)cc1 (centres undefined) | inconclusive: 100 µM [inhibitor, partial curve, poor fit] | 
3 | Cc1cc(/C=N/NC(=O)c2cccc(N(C)C)c2)c(C)n1-c1cc(C(=O)O)cc(C(=O)O)c1 | inconclusive: 50.1 µM [inhibitor, partial curve] | 
4 | CSCCC(NC(=O)c1ccco1)C(=O)OCC(=O)Nc1ncc(Cl)c(C)c1Cl (centres undefined) | inconclusive: 2.82 µM [inhibitor, full curve, poor fit] | 
5 | CCC(=O)NC(=S)Nc1cccc(NC(=O)c2ccccc2Cl)c1 |  | inactive: 1.58%
6 | O=C(Nc1cccc(O)c1)c1cccc(S(=O)(=O)N2CCCCCC2)c1 | inconclusive: 56.2 µM [inhibitor, partial curve] | 
7 | CN(C)c1ccc(C(=O)OCC(=O)Nc2ccc(S(N)(=O)=O)cc2)cc1 | active: 44.7 µM | 
8 | COc1ccc(-n2nnnc2SCC(=O)NC2CCS(=O)(=O)C2)cc1 (centres undefined) |  | inactive: 0.294%
9 | O=C(NCCCN1CCOCC1)c1cc(Cl)ccc1[N+](=O)[O-] | inconclusive: 39.8 µM [inhibitor, single point] | 
10 | Clc1cc(/C=N\NC2=NCCN2)cc(Cl)n1 |  | inactive: -7.92%
11 | COc1cccc(N2CCN(S(=O)(=O)c3ccc4nc(-c5ccccc5)[nH]c4c3)CC2)c1 | inconclusive: 39.8 µM [inhibitor, partial curve, poor fit] | 
12 | Cc1ccc(-n2c(Cl)c(Cl)nc(Cl)c2=O)cc1 | active: 22.4 µM | 
13 | COc1ccc(-c2c(C)nn3c(Cl)c(C)c(C)nc23)cc1 | inconclusive: 10 µM [inhibitor, full curve, poor fit] | 
14 | COC(=O)[C@]12CCCCC=C1N(CCC1=CCCCC1)C(=O)[C@H](CC(=O)NCCC(C)C)C2 |  | inactive: -5.91%
15 | O=C(Nc1ccc2oc(=O)c(C(=O)O)cc2c1)Oc1ccccc1 | inconclusive: 17.8 µM [inhibitor, full curve, poor fit] | 
16 | COc1cc(N=Nc2ccc(C)cc2S(N)(=O)=O)c(C)cc1N |  | inconclusive: -40.5% [inhibitor]
17 | CCC[C@@H](OS(N)(=O)=O)[C@@H](Cc1ccccc1)C(=O)OCC | inconclusive: 2.82 µM [inhibitor, partial curve, poor fit] | 
18 | COc1ccccc1C(=O)N/N=C(\C)CC(=O)Nc1ccc(Nc2ccccc2)cc1 | inconclusive: 10 µM [inhibitor, partial curve] | 
19 | COC(=O)c1ccc(NC(=O)CCS(=O)(=O)c2ccc3c(c2)NC(=O)C(C)S3)cc1 (centres undefined) |  | inactive: -1.24%
20 | Cc1cc(-n2cc(Br)c(=O)[nH]c2=O)nc(-c2ccccc2)n1 |  | inactive: -12.2%
21 | COc1ccc(CC(=O)n2[nH]c(=O)ccc2=O)cc1OC | active: 22.4 µM | 
22 | O=C1NC(=Nc2ccc(O)cc2)S/C1=C\C=C\c1ccco1 | inconclusive: 39.8 µM [inhibitor, partial curve] | 
23 | COc1ccc(C(=O)NCC2CCCO2)cc1 (centres undefined) | inconclusive: 11.2 µM [inhibitor, single point] | 

Row | SMILES | Potency | activity change, negative = inhibition
24 | O=C(CCN1CCC2CCC(C2)C1)c1ccccc1 (centres undefined) |  | inactive: -34.6%
25 | CS(=O)(=O)c1nc([N+](=O)[O-])nn1CCCc1ccccc1 |  | inactive: -6.36%
26 | O=C(N/N=C/c1cn(-c2ccccc2)nc1-c1cc2ccccc2o1)c1ccncc1 |  | inactive: -1.23%
27 | CC(C)Sc1oc(-c2ccco2)nc1S(=O)(=O)c1ccc(F)cc1 | inconclusive: 44.7 µM [inhibitor, partial curve] | 
28 | CC(NS(=O)(=O)c1ccc(Cl)c(Cl)c1)C(=O)Nc1cccnc1 (centres undefined) | inconclusive: 50.1 µM [inhibitor, partial curve] | 
29 | O=C(O)c1cccc(N/N=C/c2cn(-c3ccccc3)nc2-c2cccs2)c1 | inconclusive: 56.2 µM [inhibitor, partial curve] | 
30 | Cc1ccc(C2(C)NC(=O)N(CC(=O)N3c4ccccc4NC(=O)CC3C)C2=O)cc1 (centres undefined) |  | inactive: -6.8%
31 | Cc1cc(/C(N)=N/OC(=O)c2cccc(Cl)c2)no1 | inconclusive: 39.8 µM [inhibitor, single point] | 
32 | CC(=O)NNC(=O)c1sc(=S)n2c1[nH]c(=O)c1sccc12 | inconclusive: 22.4 µM [inhibitor, partial curve] | 
33 | CC(C)COc1ccc(C(=O)OC2CC(C)(C)OCC2CN(C)C)cc1 (centres undefined) |  | inconclusive: -36.7% [inhibitor] [at 57.1 µM]
34 | CC1=C(C(=O)Nc2ccccc2C(F)(F)F)C(c2ccc(C)s2)NC(=S)N1 (centres undefined) |  | inactive: -7.93%
35 | CCCC(=O)OCCNc1cc(SCc2ccco2)c2nonc2c1[N+](=O)[O-] | active: 35.5 µM | 
36 | O=C(Nc1cccc(NC(=O)c2ccccc2[N+](=O)[O-])n1)c1ccccc1[N+](=O)[O-] | inconclusive: 79.4 µM [inhibitor, single point] | 
37 | N/C(=N\N=C/c1ccc(Br)cc1)N/N=C\c1ccc(Br)cc1 | inconclusive: 28.2 µM [inhibitor, full curve, poor fit] | 
38 | CC(=O)Nc1cc(-c2cccc(C(=O)NCCN(C)C)c2)cn2c(-c3ccccc3)cnc12 | inconclusive: 50.1 µM [inhibitor, partial curve] | 
39 | Cc1ccc(S(=O)(=O)N2CCN(CC3CC4C=CC3C4)CC2)cc1 (centres undefined) | inconclusive: 22.4 µM [inhibitor, full curve, poor fit] | 
40 | CCOc1cc(NC(=O)c2ccccn2)c(OCC)cc1NC(=O)CC(C)C |  | inactive: 4.5%
41 | COc1ccc(S(=O)(=O)Cc2ccc(C(=O)N3CCN(c4ccccn4)CC3)o2)cc1 |  | inactive: -2.73%
42 | O=C(O)CN1C(=O)/C(=C/c2ccc(SCc3ccccc3)o2)SC1=S | inconclusive: 50.1 µM [inhibitor, partial curve] | 
43 | O=C(Nc1scc(-c2cccs2)c1C(=O)O)c1cccs1 | inconclusive: 20 µM [inhibitor, full curve, poor fit] | 
44 | Cc1ccc2c(CN(C)Cc3ccccc3)cc(=O)oc2c1C | inconclusive: 89.1 µM [inhibitor, single point] | 
45 | NS(=O)(=O)c1ccc(NC(=O)C2Cc3ccccc3CN2C(=O)c2ccco2)cc1 (centres undefined) | inconclusive: 56.2 µM [inhibitor, partial curve] | 
46 | N/C(=N\OCC(=O)Nc1ccc(F)c(Cl)c1)c1ccccc1 | inconclusive: 44.7 µM [inhibitor, partial curve] | 

Row | SMILES | Potency | activity change, negative = inhibition
47 | ON=Cc1cccn1-c1ccccc1 |  | inactive: -4.09% [at 57.1 µM]
48 | CC(C)Sc1nc(N2CCOCC2)c2c(c1C#N)CC(C)(C)N(C)C2 | inconclusive: 89.1 µM [inhibitor, single point] | 
49 | O=C(c1ccco1)N1CCCN(Cc2nc(-c3ccc4c(c3)OCO4)no2)CC1 | inconclusive: 89.1 µM [inhibitor, single point] | 
50 | C/C(=N\NC(=O)c1ccccc1O)c1cccc(NC(=O)c2ccccc2)c1 |  | inactive: -12%
51 | O=C(O)CCc1nn2c3ccccc3n(CC(=O)O)c2nc1=O |  | inactive: -7.08%
52 | O=C(Cc1cccs1)Nc1ccc(-c2nc3ccccc3[nH]2)cc1 |  | inactive: 5.29%
53 | CCOc1ccc(NC(=O)C(C)N2C(=O)c3ccccc3C2=O)cc1 (centres undefined) | inconclusive: 10 µM [inhibitor, full curve, poor fit] | 
54 | COc1cc(/C=N/Nc2nn3cnnc3c3ccccc23)ccc1O | inconclusive: 39.8 µM [inhibitor, partial curve] | 
55 | NC(=O)C1CCN(c2oc(-c3ccccc3)nc2S(=O)(=O)c2ccc(Br)cc2)CC1 | inconclusive: 39.8 µM [inhibitor, single point] | 
56 | C=C1C(=O)[C@]23C[C@H]1CCC2[C@@]1(C)C(C[C@@H]3O)[C@](C)(C(=O)OC)CC[C@@H]1OC(C)=O (some centres undefined) | inconclusive: 56.2 µM [inhibitor, partial curve] | 
57 | C/C=C\C(=O)Nc1cccc(C2=NOC3(C2)C[C@@H](C(N)=O)N(C(=O)C2(C)CC2)C3)c1 (some centres undefined) |  | inactive: 8.06%
58 | CCOC(=O)Cn1nc(NC(=O)c2ccc3c(c2)OCO3)cc1C | inconclusive: 89.1 µM [inhibitor, single point] | 
59 | Cc1cc(N2CCOCC2)ccc1/C=C1/SC(=O)NC1=O | inconclusive: 17.8 µM [inhibitor, single point] | 
60 | O=C(/C=C/c1ccco1)Nc1nc(-c2ccccn2)cs1 | inconclusive: 89.1 µM [inhibitor, partial curve] | 
61 | Cc1ccc(NC(=O)CSc2ccc(-c3cccnc3)nn2)cc1 | inconclusive: 35.5 µM [inhibitor, partial curve] | 
62 | COc1ccc(OCCCC(=O)OCC(=O)Nc2ncc(Cl)cc2Cl)cc1 | inconclusive: 79.4 µM [inhibitor, partial curve] | 
63 | COCCNC(=O)C1CCCN(C(=O)c2cc(-c3cccs3)oc2C)CC1 (centres undefined) |  | inactive: -4.56%
64 | O=C1c2cccc3cccc(c23)C(=O)N1CCCCCc1n[nH]c(=S)o1 | active: 100 µM | 
65 | CCN(CC)c1ccc(/C=C(\C#N)C(=O)c2ccc(Br)cc2)cc1 | active: 28.2 µM | 
66 | CC(=O)Nc1ccc(S(=O)(=O)N2CCN(Cc3cccc([N+](=O)[O-])c3)CC2)cc1 | inconclusive: 39.8 µM [inhibitor, single point] | 
67 | COc1ccc(NC(=S)NNc2ccc([N+](=O)[O-])cc2S(=O)(=O)Nc2ccc(C)cc2C)cc1 | inconclusive: 50.1 µM [inhibitor, partial curve] | 
68 | CSc1ccccc1NC(=O)CN(C)CC(=O)Nc1c(F)cccc1F | inconclusive: 20 µM [inhibitor, full curve] | 
69 | Cc1ccc(C(=O)Nc2ccc3c(c2)OCCO3)cc1S(=O)(=O)N1CCOCC1 | inconclusive: 25.1 µM [inhibitor, full curve] | 

Part of the list above in order of molecular weight, high to low.
Row | SMILES | Potency | activity change, negative = inhibition
66 | CC(=O)Nc1ccc(S(=O)(=O)N2CCN(Cc3cccc([N+](=O)[O-])c3)CC2)cc1 | inconclusive: 39.8 µM [inhibitor, single point] | 
32 | CC(=O)NNC(=O)c1sc(=S)n2c1[nH]c(=O)c1sccc12 | inconclusive: 22.4 µM [inhibitor, partial curve] | 
44 | Cc1ccc2c(CN(C)Cc3ccccc3)cc(=O)oc2c1C | inconclusive: 89.1 µM [inhibitor, single point] | 
